Measurements taken from publication PMC6802093, “Structural characterization of HypX responsible for CO biosynthesis in the maturation of NiFe-hydrogenase” (Communications Biology, 2019).

Molecular target: T1, A. aeolicus HypD (Aquifex aeolicus) (UniProt O67225)
T1 sequence: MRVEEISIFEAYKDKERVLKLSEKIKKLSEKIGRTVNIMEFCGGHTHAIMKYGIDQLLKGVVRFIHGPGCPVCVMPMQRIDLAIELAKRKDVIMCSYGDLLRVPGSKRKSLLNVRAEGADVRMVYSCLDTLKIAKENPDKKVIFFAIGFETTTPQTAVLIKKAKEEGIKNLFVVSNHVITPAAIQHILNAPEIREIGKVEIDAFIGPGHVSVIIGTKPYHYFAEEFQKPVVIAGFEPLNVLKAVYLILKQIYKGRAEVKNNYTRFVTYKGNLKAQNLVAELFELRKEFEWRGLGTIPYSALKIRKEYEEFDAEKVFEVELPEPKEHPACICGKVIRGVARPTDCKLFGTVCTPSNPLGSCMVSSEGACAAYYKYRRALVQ
Assay: SEC; Superdex75 10/300GL, 50 mM Tris-HCl (pH 8.0), 200 mM NaCl, 1 mM DTT; HypC alone, HypD alone, and HypC and HypD mixed in equal molar amount; apparent masses; both purified

In the case of A. aeolicus HypC (Aquifex aeolicus), the binding is reported as “binds”.

These are yes or no findings as the source states them, for the method shown. Binding calls can cover weak binding; strength is not graded here.
